Measured values as given in paper doi:10.1101/2021.11.03.467169.
No constants are given. Whether binding was seen depends on the method and setting.

The chains behind the UniProt entries cited, without tags or fusion partners. Where a name states a change or a piece, a line headed by the entry shows the natural chain unless it says otherwise.
UniProt P08913: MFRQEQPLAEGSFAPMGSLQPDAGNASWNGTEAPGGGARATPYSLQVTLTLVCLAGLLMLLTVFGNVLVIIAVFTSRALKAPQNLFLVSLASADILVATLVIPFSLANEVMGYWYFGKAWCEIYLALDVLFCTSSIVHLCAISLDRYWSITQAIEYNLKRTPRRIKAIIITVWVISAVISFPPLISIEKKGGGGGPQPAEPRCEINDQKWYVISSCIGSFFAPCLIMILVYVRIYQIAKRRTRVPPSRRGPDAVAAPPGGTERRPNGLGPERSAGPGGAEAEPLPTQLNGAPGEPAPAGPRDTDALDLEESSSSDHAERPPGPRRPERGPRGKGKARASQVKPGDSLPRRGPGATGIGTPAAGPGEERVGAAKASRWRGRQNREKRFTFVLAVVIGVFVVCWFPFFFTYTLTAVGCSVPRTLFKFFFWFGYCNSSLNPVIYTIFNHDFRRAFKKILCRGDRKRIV
UniProt P63096: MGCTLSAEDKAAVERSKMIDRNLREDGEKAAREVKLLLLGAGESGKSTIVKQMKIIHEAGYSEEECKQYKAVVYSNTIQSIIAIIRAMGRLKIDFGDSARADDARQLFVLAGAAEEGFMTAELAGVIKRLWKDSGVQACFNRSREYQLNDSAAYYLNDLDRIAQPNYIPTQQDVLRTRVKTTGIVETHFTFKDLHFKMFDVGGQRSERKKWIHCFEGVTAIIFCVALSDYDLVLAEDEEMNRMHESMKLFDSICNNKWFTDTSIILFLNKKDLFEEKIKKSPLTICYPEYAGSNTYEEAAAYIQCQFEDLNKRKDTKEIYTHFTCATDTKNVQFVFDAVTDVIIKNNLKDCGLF

Columns and labels:
[1] = target: G-ADRA2A (adrenergic receptor ADRA2A labelled with mEGFP) (UniProt P08913); assay: spectrally resolved raster image correlation spectroscopy
[2] = target: G-ADRA2A (adrenergic receptor ADRA2A labelled with mEGFP) (UniProt P08913); assay: fluorescence covariance matrix analysis

- binding [1]: no binding
- binding [2]: no binding
Substance: GNAI1-Y (GNAI1 carrying an mEYFP(Q69K) tag in the αb-αc loop) (from UniProt P63096 1-354)
